The entries are a selection whose mix differs from that of the whole data set. Calls are pooled over several reports, among them a noisy single-well screen. Some of the results follow.
Test system: T1, OR8H3
T1 sequence (whole entry): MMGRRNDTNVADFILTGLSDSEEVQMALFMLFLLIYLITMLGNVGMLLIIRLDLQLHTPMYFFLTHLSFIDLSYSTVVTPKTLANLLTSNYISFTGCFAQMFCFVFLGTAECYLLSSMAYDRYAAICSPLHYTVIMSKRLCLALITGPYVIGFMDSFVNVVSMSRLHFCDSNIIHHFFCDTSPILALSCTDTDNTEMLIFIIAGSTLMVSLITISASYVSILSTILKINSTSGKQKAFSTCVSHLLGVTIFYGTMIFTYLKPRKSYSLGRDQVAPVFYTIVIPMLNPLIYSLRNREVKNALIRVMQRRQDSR
Details: stereoisomer not certain
Method in brief: (§1)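 Assay methods differ from source to source, frequently being transient luciferase assays in mammalian cell lines. For each receptor–molecule pair, the label responsive (active) applies when the original authors judged the measured signal statistically different from baseline, and non-responsive (inactive) applies otherwise.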

SMILES | odorant receptor agonist call
CC12C=CCC1C1CCC3=CC(=O)CCC3(C)C1CC2 (stereo not given) | inactive
COc1ccccc1O | inactive
CCCCCCCC=CC=O | inactive
C=CCSCC=C | inactive
CC(=O)c1ccccc1 | inactive
CCC=CCCO | inactive
CC(C)=CCCC(C)=CC=O | inactive
COC(=O)c1ccccc1 | inactive
CC1=NC(C)SC1C (stereo not given) | inactive
O=C1CCCCCCCCCCCC(=O)OCCO1 | inactive
c1cnccn1 | inactive
CC12CCC(CC1)C(C)(C)O2 | inactive
COC(=O)c1ccccc1O | inactive
CC=Cc1ccc(O)c(OC)c1 | inactive
C=CCc1ccc(OC(C)=O)c(OC)c1 | inactive
CC1COCc2cc3c(cc21)C(C)(C)C(C)C3(C)C (stereo not given) | inactive
CCCC(=O)O | inactive
CCCCCC(C)=O | inactive
O=C1CCCCCCCCCCCCCCO1 | inactive
C=CC(C)(O)CCC=C(C)C (stereo not given) | inactive
CCCCO | inactive
COc1cc(C=O)ccc1O | inactive
CCCCCCOC(=O)CCC | inactive
CCCCCOC(C)=O | inactive
C=CCc1ccc(OC)c(OC)c1 | inactive

Test system: T2, OR8I2
T2 sequence (whole entry): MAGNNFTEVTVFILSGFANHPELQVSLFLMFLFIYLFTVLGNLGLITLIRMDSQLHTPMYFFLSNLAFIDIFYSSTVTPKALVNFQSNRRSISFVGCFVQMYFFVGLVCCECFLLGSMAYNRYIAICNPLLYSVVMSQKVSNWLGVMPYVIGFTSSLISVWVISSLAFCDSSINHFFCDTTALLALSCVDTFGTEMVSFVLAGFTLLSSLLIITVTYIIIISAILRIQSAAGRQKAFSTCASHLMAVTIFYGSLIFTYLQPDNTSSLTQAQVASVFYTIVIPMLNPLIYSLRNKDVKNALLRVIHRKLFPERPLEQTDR
Details: stereoisomer not certain
Method in brief: as §1

SMILES | odorant receptor agonist call
CC12C=CCC1C1CCC3=CC(=O)CCC3(C)C1CC2 (stereo not given) | inactive
COc1ccccc1O | inactive
CCCCCCCC=CC=O | inactive
C=CCSCC=C | inactive
CC(=O)c1ccccc1 | inactive
CCC=CCCO | inactive
CC(C)=CCCC(C)=CC=O | inactive
COC(=O)c1ccccc1 | inactive
CC1=NC(C)SC1C (stereo not given) | inactive
O=C1CCCCCCCCCCCC(=O)OCCO1 | inactive
c1cnccn1 | inactive
CC12CCC(CC1)C(C)(C)O2 | inactive
COC(=O)c1ccccc1O | inactive
CC=Cc1ccc(O)c(OC)c1 | active
C=CCc1ccc(OC(C)=O)c(OC)c1 | inactive
CC1COCc2cc3c(cc21)C(C)(C)C(C)C3(C)C (stereo not given) | active
CCCC(=O)O | inactive
CCCCCC(C)=O | inactive
O=C1CCCCCCCCCCCCCCO1 | inactive
C=CC(C)(O)CCC=C(C)C (stereo not given) | inactive
CCCCO | inactive
COc1cc(C=O)ccc1O | inactive
CCCCCCOC(=O)CCC | inactive
CCCCCOC(C)=O | inactive
C=CCc1ccc(OC)c(OC)c1 | inactive

Test system: T3, OR8J1
T3 sequence (whole entry): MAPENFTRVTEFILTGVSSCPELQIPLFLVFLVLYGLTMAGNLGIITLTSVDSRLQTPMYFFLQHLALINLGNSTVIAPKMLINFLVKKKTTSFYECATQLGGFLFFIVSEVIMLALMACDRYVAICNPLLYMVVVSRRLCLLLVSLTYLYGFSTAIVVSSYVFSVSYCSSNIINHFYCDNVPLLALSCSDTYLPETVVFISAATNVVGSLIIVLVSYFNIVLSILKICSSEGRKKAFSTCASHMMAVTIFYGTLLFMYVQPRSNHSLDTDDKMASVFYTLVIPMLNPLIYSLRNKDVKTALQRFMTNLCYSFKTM
Details: stereoisomer not certain
Method in brief: as §1

SMILES | odorant receptor agonist call
CC12C=CCC1C1CCC3=CC(=O)CCC3(C)C1CC2 (stereo not given) | inactive
COc1ccccc1O | inactive
CCCCCCCC=CC=O | active
C=CCSCC=C | inactive
CC(=O)c1ccccc1 | inactive
CCC=CCCO | inactive
CC(C)=CCCC(C)=CC=O | inactive
COC(=O)c1ccccc1 | inactive
CC1=NC(C)SC1C (stereo not given) | inactive
O=C1CCCCCCCCCCCC(=O)OCCO1 | inactive
c1cnccn1 | inactive
CC12CCC(CC1)C(C)(C)O2 | inactive
COC(=O)c1ccccc1O | inactive
CC=Cc1ccc(O)c(OC)c1 | inactive
C=CCc1ccc(OC(C)=O)c(OC)c1 | inactive
CC1COCc2cc3c(cc21)C(C)(C)C(C)C3(C)C (stereo not given) | active
CCCC(=O)O | inactive
CCCCCC(C)=O | inactive
O=C1CCCCCCCCCCCCCCO1 | inactive
C=CC(C)(O)CCC=C(C)C (stereo not given) | inactive
CCCCO | inactive
COc1cc(C=O)ccc1O | inactive
CCCCCCOC(=O)CCC | inactive
CCCCCOC(C)=O | inactive
C=CCc1ccc(OC)c(OC)c1 | inactive

Biological target: T4, OR8J3 (Homo sapiens) (UniProt Q8NGG0)
T4 sequence (whole entry): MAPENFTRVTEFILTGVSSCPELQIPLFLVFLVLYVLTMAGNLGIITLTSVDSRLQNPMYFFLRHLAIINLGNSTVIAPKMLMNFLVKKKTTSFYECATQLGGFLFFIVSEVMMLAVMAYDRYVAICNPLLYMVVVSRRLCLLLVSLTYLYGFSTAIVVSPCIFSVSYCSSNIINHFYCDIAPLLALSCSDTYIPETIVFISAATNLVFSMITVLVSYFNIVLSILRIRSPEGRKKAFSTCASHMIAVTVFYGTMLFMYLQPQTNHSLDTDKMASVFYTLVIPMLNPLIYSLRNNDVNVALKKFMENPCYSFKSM
Details: stereoisomer not certain
Method in brief: as §1

SMILES | odorant receptor agonist call
CC12C=CCC1C1CCC3=CC(=O)CCC3(C)C1CC2 (stereo not given) | inactive
COc1ccccc1O | inactive
CCCCCCCC=CC=O | inactive
C=CCSCC=C | inactive
CC(=O)c1ccccc1 | inactive
CCC=CCCO | inactive
CC(C)=CCCC(C)=CC=O | inactive
COC(=O)c1ccccc1 | inactive
CC1=NC(C)SC1C (stereo not given) | inactive
O=C1CCCCCCCCCCCC(=O)OCCO1 | inactive
c1cnccn1 | inactive
CC12CCC(CC1)C(C)(C)O2 | inactive
COC(=O)c1ccccc1O | inactive
CC=Cc1ccc(O)c(OC)c1 | inactive
C=CCc1ccc(OC(C)=O)c(OC)c1 | inactive
CC1COCc2cc3c(cc21)C(C)(C)C(C)C3(C)C (stereo not given) | inactive
CCCC(=O)O | inactive
CCCCCC(C)=O | inactive
O=C1CCCCCCCCCCCCCCO1 | inactive
C=CC(C)(O)CCC=C(C)C (stereo not given) | inactive
CCCCO | inactive
COc1cc(C=O)ccc1O | inactive
CCCCCCOC(=O)CCC | inactive
CCCCCOC(C)=O | inactive
C=CCc1ccc(OC)c(OC)c1 | inactive

Biological target: T5, OR8K1 (Homo sapiens) (UniProt Q8NGG5)
T5 sequence (whole entry): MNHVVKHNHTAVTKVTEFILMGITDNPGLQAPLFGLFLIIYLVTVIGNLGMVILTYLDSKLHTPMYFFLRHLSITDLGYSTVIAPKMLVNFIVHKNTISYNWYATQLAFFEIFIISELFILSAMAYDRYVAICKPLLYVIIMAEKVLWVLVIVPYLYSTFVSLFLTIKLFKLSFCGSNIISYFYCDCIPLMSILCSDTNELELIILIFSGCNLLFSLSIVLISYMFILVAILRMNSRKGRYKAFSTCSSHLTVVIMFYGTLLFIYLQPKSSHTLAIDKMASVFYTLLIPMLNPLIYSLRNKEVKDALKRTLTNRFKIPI
Details: stereoisomer not certain
Method in brief: as §1

SMILES | odorant receptor agonist call
CC12C=CCC1C1CCC3=CC(=O)CCC3(C)C1CC2 (stereo not given) | inactive
COc1ccccc1O | inactive
CCCCCCCC=CC=O | inactive
C=CCSCC=C | inactive
CC(=O)c1ccccc1 | inactive
CCC=CCCO | inactive
CC(C)=CCCC(C)=CC=O | inactive
COC(=O)c1ccccc1 | inactive
CC1=NC(C)SC1C (stereo not given) | inactive
O=C1CCCCCCCCCCCC(=O)OCCO1 | inactive
c1cnccn1 | inactive
CC12CCC(CC1)C(C)(C)O2 | inactive
COC(=O)c1ccccc1O | inactive
CC=Cc1ccc(O)c(OC)c1 | inactive
C=CCc1ccc(OC(C)=O)c(OC)c1 | inactive
CC1COCc2cc3c(cc21)C(C)(C)C(C)C3(C)C (stereo not given) | active
CCCC(=O)O | inactive
CCCCCC(C)=O | inactive
O=C1CCCCCCCCCCCCCCO1 | inactive
C=CC(C)(O)CCC=C(C)C (stereo not given) | inactive
CCCCO | inactive
COc1cc(C=O)ccc1O | inactive
CCCCCCOC(=O)CCC | inactive
CCCCCOC(C)=O | inactive
C=CCc1ccc(OC)c(OC)c1 | inactive

— the M2OR odorant receptor database
